{"sequences": {"note": "Protein sequences, listed by entry. Tags and fused reporters are not part of them. Lines headed by an entry give the natural chain unless they say otherwise; changes in a name come on top.", "UniProt Q8N8J7": "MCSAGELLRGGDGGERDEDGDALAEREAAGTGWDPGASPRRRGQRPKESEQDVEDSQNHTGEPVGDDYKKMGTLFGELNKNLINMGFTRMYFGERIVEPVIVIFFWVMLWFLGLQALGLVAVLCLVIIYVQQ", "UniProt Q8NFF5": "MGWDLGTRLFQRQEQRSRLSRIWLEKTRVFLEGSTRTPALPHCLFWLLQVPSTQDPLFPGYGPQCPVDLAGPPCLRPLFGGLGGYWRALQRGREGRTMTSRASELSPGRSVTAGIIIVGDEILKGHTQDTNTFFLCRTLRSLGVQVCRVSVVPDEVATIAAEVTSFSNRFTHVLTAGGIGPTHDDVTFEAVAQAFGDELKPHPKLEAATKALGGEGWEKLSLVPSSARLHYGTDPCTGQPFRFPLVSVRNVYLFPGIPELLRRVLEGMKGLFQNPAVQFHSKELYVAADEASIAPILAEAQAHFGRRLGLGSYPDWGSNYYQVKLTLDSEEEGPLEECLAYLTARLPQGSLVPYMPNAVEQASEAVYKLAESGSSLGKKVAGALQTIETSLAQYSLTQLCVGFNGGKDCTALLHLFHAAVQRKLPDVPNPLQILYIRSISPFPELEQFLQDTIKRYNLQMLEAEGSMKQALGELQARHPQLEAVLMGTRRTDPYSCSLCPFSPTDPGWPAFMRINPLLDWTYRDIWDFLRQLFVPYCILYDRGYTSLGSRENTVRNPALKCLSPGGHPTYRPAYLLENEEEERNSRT", "UniProt Q8NB90": "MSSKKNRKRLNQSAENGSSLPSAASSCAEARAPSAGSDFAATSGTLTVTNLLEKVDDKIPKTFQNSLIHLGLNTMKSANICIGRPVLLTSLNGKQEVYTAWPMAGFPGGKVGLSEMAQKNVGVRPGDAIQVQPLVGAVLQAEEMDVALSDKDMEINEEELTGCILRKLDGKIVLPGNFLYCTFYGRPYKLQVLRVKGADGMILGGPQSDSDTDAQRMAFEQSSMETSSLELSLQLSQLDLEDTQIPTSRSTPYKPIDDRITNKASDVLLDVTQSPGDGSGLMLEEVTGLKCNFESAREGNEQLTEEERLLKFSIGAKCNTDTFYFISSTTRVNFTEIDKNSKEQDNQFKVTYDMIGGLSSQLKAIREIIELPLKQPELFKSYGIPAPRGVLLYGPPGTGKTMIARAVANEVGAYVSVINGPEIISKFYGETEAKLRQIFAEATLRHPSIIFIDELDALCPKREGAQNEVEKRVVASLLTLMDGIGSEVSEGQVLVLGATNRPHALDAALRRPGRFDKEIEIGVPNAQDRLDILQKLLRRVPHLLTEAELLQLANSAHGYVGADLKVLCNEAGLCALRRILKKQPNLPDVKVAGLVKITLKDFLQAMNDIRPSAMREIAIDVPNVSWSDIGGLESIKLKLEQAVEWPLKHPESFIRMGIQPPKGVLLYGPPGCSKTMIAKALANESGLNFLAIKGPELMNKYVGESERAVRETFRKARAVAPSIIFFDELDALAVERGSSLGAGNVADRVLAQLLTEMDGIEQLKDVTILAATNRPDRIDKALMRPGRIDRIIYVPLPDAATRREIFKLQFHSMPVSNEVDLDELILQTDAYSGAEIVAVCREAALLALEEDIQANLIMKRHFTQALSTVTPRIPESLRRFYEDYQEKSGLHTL", "UniProt Q8IYQ7": "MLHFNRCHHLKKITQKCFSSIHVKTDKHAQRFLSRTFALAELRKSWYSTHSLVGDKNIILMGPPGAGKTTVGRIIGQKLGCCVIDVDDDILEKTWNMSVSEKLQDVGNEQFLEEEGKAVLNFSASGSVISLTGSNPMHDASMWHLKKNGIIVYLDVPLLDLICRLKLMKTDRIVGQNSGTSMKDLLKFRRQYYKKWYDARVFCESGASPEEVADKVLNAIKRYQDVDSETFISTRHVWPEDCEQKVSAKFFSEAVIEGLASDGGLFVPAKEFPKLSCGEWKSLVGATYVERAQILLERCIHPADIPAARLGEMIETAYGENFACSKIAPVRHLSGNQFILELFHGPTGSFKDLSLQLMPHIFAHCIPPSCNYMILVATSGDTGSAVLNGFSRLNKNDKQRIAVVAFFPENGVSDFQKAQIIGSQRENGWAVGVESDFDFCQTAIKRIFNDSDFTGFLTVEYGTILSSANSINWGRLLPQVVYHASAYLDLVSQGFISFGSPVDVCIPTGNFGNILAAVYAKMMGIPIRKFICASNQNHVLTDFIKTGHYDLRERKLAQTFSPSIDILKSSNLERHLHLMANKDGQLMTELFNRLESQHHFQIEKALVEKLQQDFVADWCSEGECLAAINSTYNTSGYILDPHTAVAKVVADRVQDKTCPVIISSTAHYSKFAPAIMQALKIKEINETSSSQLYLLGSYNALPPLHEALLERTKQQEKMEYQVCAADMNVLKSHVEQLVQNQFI", "UniProt Q8TAP8": "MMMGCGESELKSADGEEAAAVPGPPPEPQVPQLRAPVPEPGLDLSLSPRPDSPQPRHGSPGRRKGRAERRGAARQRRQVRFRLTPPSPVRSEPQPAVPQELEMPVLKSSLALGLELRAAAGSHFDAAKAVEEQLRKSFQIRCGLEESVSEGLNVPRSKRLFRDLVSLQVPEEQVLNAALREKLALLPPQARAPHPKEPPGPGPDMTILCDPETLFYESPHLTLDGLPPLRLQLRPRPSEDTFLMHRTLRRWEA", "UniProt Q8N5W9": "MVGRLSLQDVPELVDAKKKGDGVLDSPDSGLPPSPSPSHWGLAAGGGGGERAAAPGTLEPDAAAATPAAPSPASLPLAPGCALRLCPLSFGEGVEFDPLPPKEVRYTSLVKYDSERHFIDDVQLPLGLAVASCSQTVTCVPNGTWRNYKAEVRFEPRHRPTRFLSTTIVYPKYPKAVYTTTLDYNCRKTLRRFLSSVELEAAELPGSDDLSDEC", "UniProt Q8N201, whole entry": "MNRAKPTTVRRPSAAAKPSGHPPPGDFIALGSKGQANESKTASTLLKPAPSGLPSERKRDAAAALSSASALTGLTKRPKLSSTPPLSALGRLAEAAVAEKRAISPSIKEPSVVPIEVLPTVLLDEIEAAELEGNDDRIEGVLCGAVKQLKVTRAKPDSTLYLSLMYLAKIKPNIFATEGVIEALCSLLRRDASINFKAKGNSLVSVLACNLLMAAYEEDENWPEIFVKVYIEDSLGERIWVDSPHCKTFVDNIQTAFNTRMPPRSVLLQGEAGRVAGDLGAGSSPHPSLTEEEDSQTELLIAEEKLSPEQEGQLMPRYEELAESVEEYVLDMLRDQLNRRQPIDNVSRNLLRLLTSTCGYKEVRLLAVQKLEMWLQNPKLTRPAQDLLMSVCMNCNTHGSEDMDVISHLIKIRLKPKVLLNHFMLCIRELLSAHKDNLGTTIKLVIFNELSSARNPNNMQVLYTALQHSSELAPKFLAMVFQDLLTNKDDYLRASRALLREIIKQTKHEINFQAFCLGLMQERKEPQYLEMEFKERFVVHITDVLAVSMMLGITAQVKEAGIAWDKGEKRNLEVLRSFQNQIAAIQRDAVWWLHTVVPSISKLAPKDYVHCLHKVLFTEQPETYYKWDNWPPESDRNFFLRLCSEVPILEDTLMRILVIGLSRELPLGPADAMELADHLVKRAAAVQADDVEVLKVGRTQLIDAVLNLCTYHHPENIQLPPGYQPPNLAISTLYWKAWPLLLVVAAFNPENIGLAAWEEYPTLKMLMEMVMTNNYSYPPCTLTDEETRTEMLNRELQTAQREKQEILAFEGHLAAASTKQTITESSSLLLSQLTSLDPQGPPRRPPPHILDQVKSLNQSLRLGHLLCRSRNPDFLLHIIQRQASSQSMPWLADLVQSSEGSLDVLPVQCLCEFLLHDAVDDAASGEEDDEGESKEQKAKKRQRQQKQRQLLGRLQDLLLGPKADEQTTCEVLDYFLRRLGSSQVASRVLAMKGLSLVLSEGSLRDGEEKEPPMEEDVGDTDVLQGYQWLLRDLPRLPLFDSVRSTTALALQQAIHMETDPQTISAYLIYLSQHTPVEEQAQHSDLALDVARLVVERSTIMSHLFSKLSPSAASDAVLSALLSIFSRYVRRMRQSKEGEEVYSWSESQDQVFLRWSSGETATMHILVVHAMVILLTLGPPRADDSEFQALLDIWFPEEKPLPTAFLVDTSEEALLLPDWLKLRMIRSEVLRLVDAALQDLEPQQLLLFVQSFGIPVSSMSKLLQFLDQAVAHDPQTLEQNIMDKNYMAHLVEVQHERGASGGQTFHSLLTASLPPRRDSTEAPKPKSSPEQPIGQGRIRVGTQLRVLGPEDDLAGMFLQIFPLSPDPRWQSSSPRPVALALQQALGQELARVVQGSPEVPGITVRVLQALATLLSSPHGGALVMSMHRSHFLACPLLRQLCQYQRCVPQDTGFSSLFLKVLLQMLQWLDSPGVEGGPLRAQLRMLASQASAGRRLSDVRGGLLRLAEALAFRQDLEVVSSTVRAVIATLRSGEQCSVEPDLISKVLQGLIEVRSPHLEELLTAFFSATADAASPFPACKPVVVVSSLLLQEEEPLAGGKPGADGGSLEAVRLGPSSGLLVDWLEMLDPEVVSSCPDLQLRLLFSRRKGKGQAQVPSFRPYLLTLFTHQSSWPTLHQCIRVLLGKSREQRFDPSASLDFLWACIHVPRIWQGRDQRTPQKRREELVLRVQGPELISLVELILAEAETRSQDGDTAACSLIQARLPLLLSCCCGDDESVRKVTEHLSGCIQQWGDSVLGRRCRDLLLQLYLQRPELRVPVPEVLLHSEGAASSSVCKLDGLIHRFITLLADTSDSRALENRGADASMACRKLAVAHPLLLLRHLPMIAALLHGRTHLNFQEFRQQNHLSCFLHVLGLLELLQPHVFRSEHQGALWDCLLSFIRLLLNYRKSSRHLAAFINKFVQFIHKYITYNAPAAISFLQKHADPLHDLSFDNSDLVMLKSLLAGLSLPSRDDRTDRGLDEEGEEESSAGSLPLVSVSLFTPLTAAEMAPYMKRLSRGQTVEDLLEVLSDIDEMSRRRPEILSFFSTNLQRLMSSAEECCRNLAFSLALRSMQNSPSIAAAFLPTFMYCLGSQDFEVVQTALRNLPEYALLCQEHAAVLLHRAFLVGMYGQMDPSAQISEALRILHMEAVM", "UniProt Q8IWD4": "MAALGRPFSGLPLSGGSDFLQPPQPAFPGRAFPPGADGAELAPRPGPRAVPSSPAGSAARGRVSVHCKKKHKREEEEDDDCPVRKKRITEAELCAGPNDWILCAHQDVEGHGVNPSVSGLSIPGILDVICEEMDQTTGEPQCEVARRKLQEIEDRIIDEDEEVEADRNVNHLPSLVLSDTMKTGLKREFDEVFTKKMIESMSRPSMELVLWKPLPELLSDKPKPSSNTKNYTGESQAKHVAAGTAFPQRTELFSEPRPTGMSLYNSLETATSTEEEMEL", "UniProt Q8NG68": "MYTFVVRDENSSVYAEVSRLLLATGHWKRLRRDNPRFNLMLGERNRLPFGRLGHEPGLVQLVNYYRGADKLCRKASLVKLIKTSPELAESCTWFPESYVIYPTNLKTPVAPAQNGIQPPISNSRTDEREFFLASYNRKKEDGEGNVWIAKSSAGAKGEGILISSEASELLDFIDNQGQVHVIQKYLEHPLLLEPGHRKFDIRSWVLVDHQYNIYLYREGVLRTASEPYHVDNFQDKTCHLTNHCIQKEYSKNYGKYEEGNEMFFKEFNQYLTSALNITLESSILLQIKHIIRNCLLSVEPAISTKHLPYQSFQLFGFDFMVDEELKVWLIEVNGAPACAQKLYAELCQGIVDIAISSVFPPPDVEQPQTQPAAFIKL", "UniProt Q8NEL9": "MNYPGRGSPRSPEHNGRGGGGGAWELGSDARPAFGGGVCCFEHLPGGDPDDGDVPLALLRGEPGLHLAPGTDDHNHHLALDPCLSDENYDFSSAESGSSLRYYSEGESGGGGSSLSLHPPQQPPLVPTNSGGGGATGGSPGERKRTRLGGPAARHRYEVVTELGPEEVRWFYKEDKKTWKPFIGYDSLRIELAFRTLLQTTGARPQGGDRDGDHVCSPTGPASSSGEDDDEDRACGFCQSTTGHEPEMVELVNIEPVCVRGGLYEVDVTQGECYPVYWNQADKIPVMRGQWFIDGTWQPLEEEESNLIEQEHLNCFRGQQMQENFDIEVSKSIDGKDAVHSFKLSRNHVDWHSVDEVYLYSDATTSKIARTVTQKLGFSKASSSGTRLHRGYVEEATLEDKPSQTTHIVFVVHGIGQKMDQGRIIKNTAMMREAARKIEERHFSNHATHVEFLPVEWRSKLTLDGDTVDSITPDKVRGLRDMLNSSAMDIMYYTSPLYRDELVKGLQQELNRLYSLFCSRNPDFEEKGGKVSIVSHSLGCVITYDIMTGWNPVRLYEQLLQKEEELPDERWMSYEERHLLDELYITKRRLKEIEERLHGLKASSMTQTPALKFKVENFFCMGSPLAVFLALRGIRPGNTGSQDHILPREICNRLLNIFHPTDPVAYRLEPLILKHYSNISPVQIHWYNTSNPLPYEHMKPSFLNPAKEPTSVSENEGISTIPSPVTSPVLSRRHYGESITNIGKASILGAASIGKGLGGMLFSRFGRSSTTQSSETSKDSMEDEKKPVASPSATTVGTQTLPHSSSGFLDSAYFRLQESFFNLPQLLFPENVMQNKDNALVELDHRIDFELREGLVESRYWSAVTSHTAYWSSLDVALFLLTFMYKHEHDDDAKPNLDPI"}, "source": "the supplement of paper PMC6411743", "note": "± gives the standard deviation of the averaged measurements. This is a selection; strong and weak results do not stand in their true shares. Small differences around the control level are noise.", "data": [{"compound": "Nc1ncnc2c1ncn2[C@@H]1O[C@H](COP(=O)(O)OP(=O)(O)OP(=O)(O)O)[C@@H](O)[C@H]1O [adenosine triphosphate]", "assay": "NP40-soluble protein abundance relative to vehicle (solubility fold change) (ratio); higher = more soluble protein in presence of ATP", "conditions": "concentration: 0.1mM", "procedure,_shortened": "(§1)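 Data come from three independent experiments in which Dounce-homogenised Jurkat crude lysate was treated at eight concentrations from 0.1 to 10 mM. Treatment ran 10 min at room temperature and then 3 min at 37 °C, after which 0.8% NP40 and benzonase were added for 60 min at 4 °C before ultracentrifugation. The supernatant underwent TMT labelling and LC-MS/MS, and vsn-normalised intensities were expressed as fold change against the detergent-processed vehicle in each replicate.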", "values": [{"target": "UniProt Q8IY63 and related entries", "NP40-soluble protein abundance": "0.909 ± 0.035"}, {"target": "UniProt Q8N357", "NP40-soluble protein abundance": "1.01 ± 0.045"}, {"target": "UniProt Q8NCE2-2|Q8NCE2 and related entries", "NP40-soluble protein abundance": "0.982 ± 0.021"}, {"target": "Q8N655 (UniProt Q96JN0)", "NP40-soluble protein abundance": "0.908 ± 0.076"}, {"target": "PRPF38A (UniProt Q8NAV1)", "NP40-soluble protein abundance": "0.991 ± 0.067"}, {"target": "UniProt Q8N8J7", "NP40-soluble protein abundance": "0.968 ± 0.063"}, {"target": "CMIP (UniProt Q8IY22)", "NP40-soluble protein abundance": "1.01 ± 0.019"}, {"target": "WDR48 (UniProt Q8TAF3)", "NP40-soluble protein abundance": "1.05 ± 0.054"}, {"target": "UniProt Q8NFV4 and related entries", "NP40-soluble protein abundance": "0.944 ± 0.063"}, {"target": "UniProt Q8NFF5 and related entries", "NP40-soluble protein abundance": "1.01 ± 0.048"}, {"target": "KLHL36 (UniProt Q8N4N3)", "NP40-soluble protein abundance": "0.98 ± 0.065"}]}, {"compound": "Nc1ncnc2c1ncn2[C@@H]1O[C@H](COP(=O)(O)OP(=O)(O)OP(=O)(O)O)[C@@H](O)[C@H]1O [adenosine triphosphate]", "assay": "NP40-soluble protein abundance relative to vehicle (solubility fold change) (ratio); higher = more soluble protein in presence of ATP", "conditions": "concentration: 0.5mM", "procedure,_shortened": "as §1", "values": [{"target": "DTWD2 (UniProt Q8NBA8)", "NP40-soluble protein abundance": "1.05 ± 0.091"}, {"target": "SPATA5 (UniProt Q8NB90)", "NP40-soluble protein abundance": "1.35 ± 0.058"}, {"target": "SUPV3L1 (UniProt Q8IYB8)", "NP40-soluble protein abundance": "1.05 ± 0.044"}, {"target": "THNSL1 (UniProt Q8IYQ7)", "NP40-soluble protein abundance": "1.03 ± 0.1"}, {"target": "ZCCHC9 (UniProt Q8N567)", "NP40-soluble protein abundance": "1.14 ± 0.032"}, {"target": "UniProt Q8IWV8 and related entries", "NP40-soluble protein abundance": "1.04 ± 0.086"}, {"target": "PPP1R35 (UniProt Q8TAP8)", "NP40-soluble protein abundance": "0.954 ± 0.023"}, {"target": "PSD4 (UniProt Q8NDX1)", "NP40-soluble protein abundance": "1.07 ± 0.011"}, {"target": "RFLNB (UniProt Q8N5W9)", "NP40-soluble protein abundance": "0.942 ± 0.052"}, {"target": "INTS1 (UniProt Q8N201)", "NP40-soluble protein abundance": "1.05 ± 0.019"}, {"target": "DIS3L2 (UniProt Q8IYB7)", "NP40-soluble protein abundance": "1.04 ± 0.042"}, {"target": "PPTC7 (UniProt Q8NI37)", "NP40-soluble protein abundance": "0.979 ± 0.18"}, {"target": "UniProt Q8N4C8 and related entries", "NP40-soluble protein abundance": "0.989 ± 0.046"}, {"target": "PTGR2 (UniProt Q8N8N7)", "NP40-soluble protein abundance": "1.02 ± 0.014"}, {"target": "CCDC117 (UniProt Q8IWD4)", "NP40-soluble protein abundance": "0.943 ± 0.021"}, {"target": "TTL (UniProt Q8NG68)", "NP40-soluble protein abundance": "0.995 ± 0.045"}, {"target": "SCCPDH (UniProt Q8NBX0)", "NP40-soluble protein abundance": "1.02 ± 0.064"}, {"target": "DDHD1 (UniProt Q8NEL9)", "NP40-soluble protein abundance": "1.01 ± 0.025"}, {"target": "UniProt Q8N4Q1 and related entries", "NP40-soluble protein abundance": "0.906 ± 0.067"}, {"target": "LNX2 (UniProt Q8N448)", "NP40-soluble protein abundance": "0.986 ± 0.012"}, {"target": "UniProt Q8N122 and related entries", "NP40-soluble protein abundance": "1.01 ± 0.044"}, {"target": "UniProt Q8N6G5 and related entries", "NP40-soluble protein abundance": "1 ± 0.062"}, {"target": "UBR1 (UniProt Q8IWV7)", "NP40-soluble protein abundance": "1.06 ± 0.072"}, {"target": "UniProt Q8IVW6 and related entries", "NP40-soluble protein abundance": "0.976 ± 0.04"}, {"target": "RYBP (UniProt Q8N488)", "NP40-soluble protein abundance": "1.02 ± 0.029"}, {"target": "UniProt Q8NEY8 and related entries", "NP40-soluble protein abundance": "0.968 ± 0.055"}, {"target": "UniProt Q8NHH9 and related entries", "NP40-soluble protein abundance": "1.05 ± 0.044"}, {"target": "UniProt Q8IY63 and related entries", "NP40-soluble protein abundance": "0.95 ± 0.03"}, {"target": "UniProt Q8N357", "NP40-soluble protein abundance": "0.995 ± 0.042"}, {"target": "UniProt Q8NCE2-2|Q8NCE2 and related entries", "NP40-soluble protein abundance": "1.01 ± 0.044"}, {"target": "Q8N655 (UniProt Q96JN0)", "NP40-soluble protein abundance": "1.06 ± 0.089"}, {"target": "PRPF38A (UniProt Q8NAV1)", "NP40-soluble protein abundance": "1.04 ± 0.11"}, {"target": "UniProt Q8N8J7", "NP40-soluble protein abundance": "0.854 ± 0.16"}, {"target": "CMIP (UniProt Q8IY22)", "NP40-soluble protein abundance": "1.042 ± 0.0018"}, {"target": "WDR48 (UniProt Q8TAF3)", "NP40-soluble protein abundance": "1.04 ± 0.026"}, {"target": "UniProt Q8NFV4 and related entries", "NP40-soluble protein abundance": "0.95 ± 0.15"}, {"target": "UniProt Q8NFF5 and related entries", "NP40-soluble protein abundance": "0.998 ± 0.042"}, {"target": "KLHL36 (UniProt Q8N4N3)", "NP40-soluble protein abundance": "0.944 ± 0.055"}]}]}
